Assay [1] has as its target porcine Gasdermin D residues 194-279 (pGSDMD-194-279) (porcine (cDNA of IPEC-J2 cells)). Put plainly: co-IP.
The target of assay [2] is porcine Gasdermin D residues 1-193 (pGSDMD-1-193) (porcine (cDNA of IPEC-J2 cells)). As to the kind of experiment: co-IP.

No constants are given. Whether binding was seen depends on the method and setting. In cells and extracts the contact can be indirect. Tags and fused reporters may be left off the sequences shown.

B1: porcine caspase-1 (HA-caspase-1) (enzyme, UniProt Q9N2I1 1-404)
chain: MADKVLKEKRRLFVRSVAMGTINGLLDELLETRVLNQEEVEIVRGENATVMDKARALIDSVIRKGPQACQICINHICGDDPHLAGVLELSTGSQSGKCLTVQESQAVVPPFPAPQTVQDNPVKPASSEPRGSLKLCPPDIAQRLWKEKSAEIYPIMGKSIRTRLALIICNTEFENLPRRDGADVDIRDMKILLEDLGYSVDVRENLTASDMAIELKAFAARPEHKSSDSTFLVLMSHGIQAGICGKKYSEEVPDVLEVNTVFQILNTLNCPSLKDKPKVIIIQACRGEKQGVVWIKDSVGPSGNSSLLAAEDFEYDAIKKAHIEKDFIAFCSSTPDNVSWRHPLLGSLFIIKLIKILQEHAWSCGLEEIFRKVRFSFELADGRAQMPTAERVTLTRSFYLFPGH
Turning to B1, the binding entry in assay [1] and in assay [2] was “no binding” throughout.

Source of the values: paper doi:10.1101/2021.02.23.432418.
